# Experimental data as given in PubChem BioAssay AID651818 (Broad Institute, 2012).
# The inconclusive results got no clear call from the source; some entries with a clear call stand among them for comparison. Active and inactive are the calls of the source. Cut-off read from the data, not from the text of the source: inconclusive = activity change below about -55%; inactive = above that.
# Assay: intracellular Trypanosoma cruzi inhibitors in host cells – cell-based, plate reader, cherry-pick samples, set 3, dose response (AID 651818)
# Conditions: at 10 µM (top of the series) unless noted
row,SMILES,"activity change, negative = inhibition"
1,COc1ccc(NC(=O)Nc2cccc3c2O[C@@H](CN(C)Cc2ccc(Oc4ccccc4)cc2)[C@H](C)CN([C@@H](C)CO)C3=O)cc1,inconclusive: -62.3%
2,C[C@H](CO)N1C[C@H](C)[C@H](CN(C)Cc2ccncc2)Oc2ccc(NC(=O)Nc3ccc(C(F)(F)F)cc3)cc2CC1=O,inconclusive: -95.8%
3,C[C@H](CO)N1C[C@H](C)[C@H](CN(C)Cc2ccc3c(c2)OCO3)Oc2ccc(NC(=O)Nc3ccc(C(F)(F)F)cc3)cc2CC1=O,inconclusive: -103%
4,Cc1ccc(S(=O)(=O)Nc2ccc3c(c2)C(=O)N([C@H](C)CO)C[C@H](C)[C@H](CN(C)Cc2ccc(Cl)c(Cl)c2)OCCCC[C@@H](C)O3)cc1,inconclusive: -98.5%
5,C[C@H](CO)N1C[C@H](C)[C@H](CN(C)C(=O)Nc2ccc(C(F)(F)F)cc2)Oc2c(NC(=O)c3ccncc3)cccc2C1=O,inconclusive: -75.7%
6,C[C@@H]1CN([C@@H](C)CO)C(=O)c2cccc(NC(=O)c3ccncc3)c2O[C@@H]1CN(C)C,inactive: -5.04%
7,C[C@@H]1CN([C@@H](C)CO)C(=O)c2cccc(NC(=O)Nc3ccccc3)c2O[C@@H]1CN(C)S(=O)(=O)c1cn(C)cn1,inactive: -19.1%
8,C[C@H](CO)N1C[C@H](C)[C@@H](CN(C)S(=O)(=O)c2ccc(Cl)cc2)Oc2c(NC(=O)C3CC3)cccc2C1=O,inactive: 20.4%
9,C[C@@H]1CN([C@H](C)CO)C(=O)Cc2cc(NS(=O)(=O)c3ccc(Cl)cc3)ccc2O[C@@H]1CN(C)Cc1ccc2c(c1)OCO2,inconclusive: -96.2%
10,C[C@H](CO)N1C[C@H](C)[C@H](CN(C)C(=O)NC2CCCCC2)Oc2ncc(C#Cc3ccc(C(F)(F)F)cc3)cc2C1=O,inconclusive: -99.4%
11,C[C@@H]1CCCCO[C@H](CN(C)CC2CCCCC2)[C@@H](C)CN([C@H](C)CO)C(=O)c2cc(NC(=O)Nc3ccc(C(F)(F)F)cc3)ccc2O1,inconclusive: -98.5%
12,C[C@@H]1CN([C@@H](C)CO)C(=O)c2cccc(NC(=O)Nc3ccc(C(F)(F)F)cc3)c2O[C@@H]1CN(C)C(=O)Nc1ccc(C(F)(F)F)cc1,inconclusive: -98.2%
13,Cc1ccc(S(=O)(=O)N(C)C[C@@H]2OCCCC[C@@H](C)Oc3ccc(NC(=O)Nc4ccc(C(F)(F)F)cc4)cc3C(=O)N([C@H](C)CO)C[C@@H]2C)cc1,inconclusive: -86.8% [at 9 µM]
14,C[C@@H]1CN([C@H](C)CO)C(=O)c2cccc(NC(=O)Nc3ccc(C(F)(F)F)cc3)c2O[C@@H]1CN(C)Cc1ccc(C(F)(F)F)cc1,inconclusive: -60.1%
15,COc1ccc(S(=O)(=O)N(C)C[C@H]2Oc3c(NS(=O)(=O)c4ccc(F)cc4)cccc3C(=O)N([C@H](C)CO)C[C@H]2C)cc1,inactive: -5.26%
16,COc1ccc(NC(=O)Nc2ccc3c(c2)C(=O)N([C@H](C)CO)C[C@H](C)[C@H](CN(C)Cc2ccc(C(F)(F)F)cc2)OCCCC[C@@H](C)O3)cc1,inconclusive: -96.6%
17,Cc1ccc(S(=O)(=O)Nc2cccc3c2O[C@H](CN(C)C(=O)NC(C)C)[C@@H](C)CN([C@H](C)CO)C3=O)cc1,inactive: 11.7%
18,C[C@H]1CN([C@@H](C)CO)C(=O)c2cccc(NC(=O)c3nc4ccccc4s3)c2O[C@@H]1CN(C)C(=O)Nc1ccc(C(F)(F)F)cc1,inconclusive: -85.7%
19,C[C@@H]1CN([C@H](C)CO)C(=O)c2cc(NC(=O)Nc3cccc4ccccc34)ccc2O[C@H]1CN(C)Cc1ccc(C(F)(F)F)cc1,inconclusive: -88.2%
20,C[C@@H]1CN([C@H](C)CO)C(=O)c2cccc(NC(=O)c3nc4ccccc4s3)c2O[C@H]1CN(C)Cc1ccc(C(F)(F)F)cc1,inconclusive: -98.8%

# In the list so far, these contain an aryl methoxy group.
row,SMILES,"activity change, negative = inhibition"
1,COc1ccc(NC(=O)Nc2cccc3c2O[C@@H](CN(C)Cc2ccc(Oc4ccccc4)cc2)[C@H](C)CN([C@@H](C)CO)C3=O)cc1,inconclusive: -62.3%
15,COc1ccc(S(=O)(=O)N(C)C[C@H]2Oc3c(NS(=O)(=O)c4ccc(F)cc4)cccc3C(=O)N([C@H](C)CO)C[C@H]2C)cc1,inactive: -5.26%
16,COc1ccc(NC(=O)Nc2ccc3c(c2)C(=O)N([C@H](C)CO)C[C@H](C)[C@H](CN(C)Cc2ccc(C(F)(F)F)cc2)OCCCC[C@@H](C)O3)cc1,inconclusive: -96.6%

# (listing goes on)

row,SMILES,"activity change, negative = inhibition"
1,C[C@@H]1CN([C@H](C)CO)C(=O)c2cccc(NC(=O)c3cnccn3)c2O[C@H]1CN(C)Cc1ccc(C(=O)Nc2ccccc2N)cc1,inconclusive: -54.8%
2,C[C@@H]1CN([C@@H](C)CO)C(=O)c2cccc(NC(=O)c3cnccn3)c2O[C@H]1CN(C)CC1CC1,inactive: -22.2%
3,O=C(CCCCCCC(=O)Nc1ccccc1O)N/N=C/c1ccc([N+](=O)[O-])s1,inconclusive: -77.1%
4,Cc1ccc(S(=O)(=O)N(C)C[C@H]2Oc3ccc(NC(=O)Nc4ccc(C(F)(F)F)cc4)cc3CC(=O)N([C@H](C)CO)C[C@H]2C)cc1,inconclusive: -55.6%
5,Cc1cc(C(=O)Nc2cccc3c2O[C@@H](CN(C)C(=O)Nc2ccccc2)[C@@H](C)CN([C@H](C)CO)C3=O)n(C)n1,inactive: 4.05%
6,COc1ccc(S(=O)(=O)Nc2ccc3c(c2)CC(=O)N([C@@H](C)CO)C[C@@H](C)[C@@H](CN(C)S(=O)(=O)c2ccc(OC)cc2)O3)cc1,inconclusive: -60.2%
7,C[C@@H]1CN([C@@H](C)CO)C(=O)Cc2cc(NC(=O)Nc3cccc4ccccc34)ccc2O[C@@H]1CN(C)CC1CCCCC1,inconclusive: -98.3%
8,COc1ccc(NC(=O)Nc2ccc3c(c2)C(=O)N([C@@H](C)CO)C[C@H](C)[C@H](CN(C)Cc2ccc(-c4ccccc4)cc2)O3)cc1,inconclusive: -98.3%
9,C[C@@H]1CN([C@@H](C)CO)C(=O)c2cccc(NC(=O)Nc3ccc(C(F)(F)F)cc3)c2O[C@H]1CN(C)Cc1ccc(C(=O)Nc2ccccc2N)cc1,inconclusive: -99.4%
10,C[C@@H]1CN([C@H](C)CO)C(=O)c2cccc(NC(=O)c3ccncc3)c2O[C@@H]1CN(C)Cc1ccc(Cl)c(Cl)c1,inconclusive: -66.7%
11,C[C@@H]1CN([C@@H](C)CO)C(=O)c2cccc(NC(=O)Nc3ccc(C(F)(F)F)cc3)c2O[C@H]1CN(C)S(=O)(=O)c1ccc(Cl)cc1,inconclusive: -64.2%
12,C[C@@H]1CN([C@@H](C)CO)C(=O)c2cccc(NS(=O)(=O)c3ccc(F)cc3)c2O[C@@H]1CN(C)Cc1ccc(C(=O)Nc2ccccc2N)cc1,inconclusive: -62.6%
13,Cc1noc(C)c1S(=O)(=O)N(C)C[C@@H]1Oc2c(NS(=O)(=O)c3cn(C)cn3)cccc2C(=O)N([C@H](C)CO)C[C@@H]1C,inactive: -2.56%
14,C[C@@H]1CN([C@@H](C)CO)C(=O)Cc2cc(NC(=O)Nc3ccccc3)ccc2O[C@@H]1CN(C)Cc1ccc(Oc2ccccc2)cc1,inconclusive: -62.7%
15,Cc1noc(C)c1NC(=O)Nc1cccc2c1O[C@@H](CN(C)C(=O)NC1CCCCC1)[C@@H](C)CN([C@@H](C)CO)C2=O,inactive: -25.2%
16,C[C@H](CO)N1C[C@H](C)[C@H](CN(C)C(=O)NC2CCCCC2)Oc2c(NC(=O)c3ccncc3)cccc2C1=O,inconclusive: -62.4%
17,COc1ccc(S(=O)(=O)N(C)C[C@H]2Oc3ccc(NC(=O)Nc4ccc(C(F)(F)F)cc4)cc3CC(=O)N([C@H](C)CO)C[C@H]2C)cc1,inconclusive: -95.6%
18,C[C@@H]1CN([C@H](C)CO)C(=O)c2cccc(NS(=O)(=O)c3cn(C)cn3)c2O[C@@H]1CN(C)CC1CCCCC1,inactive: -17%
19,C[C@H]1CN([C@@H](C)CO)C(=O)c2cccc(NS(=O)(=O)c3cccs3)c2O[C@@H]1CN(C)C(=O)NC1CCCCC1,inactive: 29.2%
20,C[C@@H]1CN([C@H](C)CO)C(=O)c2cccc(NC(=O)Nc3ccc(C(F)(F)F)cc3)c2O[C@@H]1CN(C)C(=O)Nc1ccc(C(F)(F)F)cc1,inconclusive: -62%
